{"source": "PubChem BioAssay AID504764 – Drosophila RNAi Screening Center – 2011", "purpose": "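Genes whose knock-down alters Notch-dependent transcription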 (primary screen)", "system": "Drosophila Kc167 cells", "reagent": "long dsRNA against Drosophila genes", "duration": "about 5 days (4 days dsRNA, then 24 h after transfection)", "challenge": "transfection of constitutively active membrane-tethered Notch lacking the extracellular domain, read 24 h later", "measurement": "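Light from a Notch-responsive E(spl)m3 luciferase reporter under active Notch, with control-promoter and no-Notch reporter wells to normalise; raw counts from paired wells a and b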", "scale": "induced reporter light, run 1, well a and induced reporter light, run 1, well b: higher = more light from the Notch target reporter with active Notch; control promoter light, run 1, well a and control promoter light, run 1, well b: higher = more light from the viral control promoter (cell number, transfection, viability); uninduced reporter light, run 1, well a: higher = more light from the Notch target reporter without active Notch", "rule for the call": "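Wells with low control signal or poorly matching duplicates excluded; duplicates averaged; per source plate, z beyond ±2 for induced/control log2 ratio or beyond ±1.8 for induced/uninduced marks a hit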", "calls": "active = modifier hit (raised or lowered Notch signal); inactive = not a hit", "note": "The screen tested about 22,000 reagents; this is an unselected part of those that have a named target and a result. In the full data, 403 (1.9%) are marked active. 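Unnormalised raw counts per well; ratio z-scores behind the hit calls and whether each hit raises or lowers signal are not deposited.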 Entries without a mark were called inactive. Not given: the amount of reagent."}
{"gene": "CG14006", "induced reporter light, run 1, well a": "1.45e5 (active)", "induced reporter light, run 1, well b": 1.42e5, "control promoter light, run 1, well a": 2.08e5, "control promoter light, run 1, well b": 1.50e5, "uninduced reporter light, run 1, well a": 11950}
{"gene": "CG43658", "induced reporter light, run 1, well a": 44645, "induced reporter light, run 1, well b": 41415, "control promoter light, run 1, well a": 49850, "control promoter light, run 1, well b": 45570, "uninduced reporter light, run 1, well a": 6870}
{"gene": "CG5895", "induced reporter light, run 1, well a": 1.94e5, "induced reporter light, run 1, well b": 2.30e5, "control promoter light, run 1, well a": 2.42e5, "control promoter light, run 1, well b": 2.19e5, "uninduced reporter light, run 1, well a": 10678}
{"gene": "CG34106", "induced reporter light, run 1, well a": 1.02e5, "induced reporter light, run 1, well b": 69070, "control promoter light, run 1, well a": 71830, "control promoter light, run 1, well b": 74145, "uninduced reporter light, run 1, well a": 6660}
{"gene": "l(2)37Bb (lethal (2) 37Bb)", "induced reporter light, run 1, well a": 38920, "induced reporter light, run 1, well b": 28840, "control promoter light, run 1, well a": 39180, "control promoter light, run 1, well b": 31630, "uninduced reporter light, run 1, well a": 1810}
{"gene": "rumi", "induced reporter light, run 1, well a": 1.38e5, "induced reporter light, run 1, well b": 1.26e5, "control promoter light, run 1, well a": 1.60e5, "control promoter light, run 1, well b": 1.72e5, "uninduced reporter light, run 1, well a": 14955}
{"gene": "CG18266", "induced reporter light, run 1, well a": 2.08e5, "induced reporter light, run 1, well b": 2.07e5, "control promoter light, run 1, well a": 2.53e5, "control promoter light, run 1, well b": 2.80e5, "uninduced reporter light, run 1, well a": 18615}
{"gene": "ebd2 (earthbound 2)", "induced reporter light, run 1, well a": 1.18e5, "induced reporter light, run 1, well b": 89890, "control promoter light, run 1, well a": 1.20e5, "control promoter light, run 1, well b": 96920, "uninduced reporter light, run 1, well a": 6630}
{"gene": "CG15701", "induced reporter light, run 1, well a": 1.27e5, "induced reporter light, run 1, well b": 1.25e5, "control promoter light, run 1, well a": 1.08e5, "control promoter light, run 1, well b": 98780, "uninduced reporter light, run 1, well a": 7470}
{"gene": "ox (oxen)", "induced reporter light, run 1, well a": 76100, "induced reporter light, run 1, well b": 81185, "control promoter light, run 1, well a": 1.27e5, "control promoter light, run 1, well b": 1.09e5, "uninduced reporter light, run 1, well a": 7678}
{"gene": "CG14464", "induced reporter light, run 1, well a": "92695 (active)", "induced reporter light, run 1, well b": 1.22e5, "control promoter light, run 1, well a": 1.83e5, "control promoter light, run 1, well b": 1.56e5, "uninduced reporter light, run 1, well a": 3880}
{"gene": "CG4928", "induced reporter light, run 1, well a": 1.23e5, "induced reporter light, run 1, well b": 1.40e5, "control promoter light, run 1, well a": 98365, "control promoter light, run 1, well b": 56490, "uninduced reporter light, run 1, well a": 9360}

Part of the list above, reduced to “control promoter light, run 1, well a”.
CG15701 = 1.08e5
ox (oxen) = 1.27e5
